Experimental data as given in the supplement of paper PMC5949888.
Most values lie at the floor of the assay. Slopes are relative: functional sequences can read slightly below zero.

tested on: Saccharomyces cerevisiae PS128 hsf1 delta, HSF1(1-493) fusion; experiment: growth estimate (transactivation domain function in HSF1 fusion, heat-shock survival) (a.u. (slope of normalised read count over time)); higher = stronger growth at 37°C, i.e. more transactivation activity; details: library: random library

Substance | growth estimate
PIRGTERGGCEVRAIYPRPT | < -0.25
GVETHLR | < -0.25
VSV | < -0.25
SHSSIVFITGYPGAAPDDRG | < -0.25
ANPGSGCTEHRSRRQFRVLT | < -0.25
ADVVRKRQGRLQDLFLREWT | < -0.25
GGACWRVVTLD | -0.222
MARPRFVHARELS | < -0.25
ALLE | < -0.25
DERSIGGTIQPQLSLLNGG | < -0.25
AEMSRIFDGGRGSIH | < -0.25
FMVSARPMTGFSSPPGRDGT | -0.245
MDRREGPRLTRKLKVDALR | < -0.25
RSDCPHLAPRYRKPAPGEYG | < -0.25
RPRGAKR | < -0.25
SAGGASTAKYSFYLREVNSH | < -0.25
ACRRLKLSSTLGSLSVLEHQ | < -0.25
RIGKSSAPGKKVRLASRGKH | < -0.25
NAGMNLSQFSRSGVKVPVQR | < -0.25
VAFTAG | < -0.25
RSMLRLRSHVAPKVRPSHLG | < -0.25
FTFTLGAYPGVAGRRALAGP | < -0.25
LQSYKVRFAAD | < -0.25
ASIATWRIFMEGQGRRV | < -0.25
LASTGWVMTVEGSGSFA | < -0.25

Three consecutive entries from above, for reference:
Substance | growth estimate
MDRREGPRLTRKLKVDALR | < -0.25
RSDCPHLAPRYRKPAPGEYG | < -0.25
RPRGAKR | < -0.25

More records.

Substance | growth estimate
QEARERHI | < -0.25
TVLSTGPPS | < -0.25
GKDGPQTGDPPVDT | < -0.25
PGLKERWRYSLLDGARRAAR | < -0.25
STRVRPPIVHAFVIGTSGRP | < -0.25
TDLLRRNLVQSKVRGHG | < -0.25
PKSRLNIES | < -0.25
FYPKVGMHG | < -0.25
RVGFWASGHPGALFAGKGIL | < -0.25
WGGKCSASWAHKTPVP | < -0.25
TCLGRPPMTYVLATGSEWNR | < -0.25
TLSGEGSPNVSAHGAVRQCG | < -0.25
IVYYLIGKSEWTLRGESVH | < -0.25
GSLRMLDQPILQLADLSTGP | < -0.25
SRGESPLQSVTTVSWTRDLD | < -0.25
YGRM | < -0.25
SGSVSNHGYRENY | < -0.25
SGEWLDLGIRLKIPDDPVAL | < -0.25
SCCGS | < -0.25
RFGGRRRPTRCRRKTSDVHA | < -0.25
EGGVDVRYDYGPFLGESLSL | 0.0824
KAFISRMRFFSGNLGYLARR | < -0.25
RGHIRGS | < -0.25
RTFKSWSAFYSRGGLRHIPA | < -0.25
LMPLLSSFYCSFGRYDH | < -0.25

Substance | growth estimate
IFCEERPSI | < -0.25
LSITFFVHNSYILRLVRCLL | < -0.25
IALRSPGPTPSVGGVIMSAA | < -0.25
IPSH | < -0.25
RLADKRTPYFSARGNVRDPL | < -0.25
SGTTSSFSSLRSQGNGGHSW | < -0.25
QVGRIEARLVFIHA | < -0.25
SFRLACGVNGHTE | < -0.25
LGGYILLRSLASSMCYN | < -0.25
GQFRPLNMVVPICKCAYVCV | < -0.25
ERCTALSYRGLPGILYCY | < -0.25
CVG | < -0.25
TISTGGIQVPRFPLYARAAR | < -0.25
ANDGLCVQYSLRTQPRFSIG | < -0.25
VDGTLFASPRMV | -0.177
FGNTTSATQ | < -0.25
GTNIHAPSTDGRQRSGCHAR | < -0.25
SVAEPH | < -0.25
FRAGGQGRC | < -0.25
FHRWFGQESLSGYNCRPAFK | < -0.25
ARE | < -0.25
ITGRDVRPCGFSKERGSITA | < -0.25
LAYRHSIAAQHGTGHFVASW | < -0.25
VLQIRIRSMRKKSRD | -0.243
VLTVRYAGTRPLSVDRGNCL | -0.248

Substance | growth estimate
VLCYLRLSGRPCSSTKRQVP | < -0.253
FSLGFGTVPQSTGALTS | < -0.25
YRVLHICSGLIFDGLILDSG | < -0.25
QVVTGKGVESQRV | < -0.25
PTTVCCWGPPR | < -0.25
PAKKMRVGCAVPHVDGSGWL | < -0.25
LPAALW | < -0.25
IMWWQYGRPKRN | -0.246
IRTL | -0.246
KERVLSRDGQWYRGRIRC | < -0.25
GKQVRWPRMGWSGGRRESP | < -0.25
LPSSCGLPPSQLSVCAHWNR | < -0.25
GLDSTKTIDI | < -0.25
SVSAVP | < -0.25
IVCSPTAFS | -0.201
GLFQVVAHGPRGVNRSLRPP | < -0.25
PDGSTMCDAGAAGD | < -0.25
QLELGFVHCAVAPALRCGRP | < -0.25
KHE | < -0.25
CFPHQLSLGGCLGYGYLGSR | < -0.25
RDRGNEPALSVEEDGEQWYR | < -0.25
VLDVQPVSVRRFQLFRSWPD | < -0.25
GSVVHSQRPS | < -0.25
VPGRSLRSNSAALCRWKP | < -0.25
EIDGLIRDERGMFSIDCVTI | < -0.25

Substance | growth estimate
VGSSLARYIPLAQNTIFG | < -0.25
YWSGGSVGCKLWFSRLNPNP | < -0.25
LIHGAGARINERRWGFCVKV | < -0.25
RSVIGSGLCLLCWTVRRGRR | < -0.25
FFWEPKESDRRYWIKQQSRR | < -0.25
LRRVENASYRNSRYARALWI | < -0.25
YVSREGFDLHAGTISLWGGY | < -0.25
LSTASREDSQANGWV | < -0.25
YLTVGHRCNTASEESDRNGA | < -0.25
DTTRAAGKWRVTRYDRPKGA | < -0.25
NVFNGVESLKTDLY | < -0.25
LENRTYDRAARPHVRFKG | < -0.25
GPRGR | < -0.25
SQVKFGITGGLVEHGSFRGE | < -0.25
SCITSTVGYAKPEGERRAR | < -0.25
SRPRRARGDEIGIGGCNPAS | < -0.25
SALHECMPGAVQVCAETSRA | < -0.25
AGQGHKCLWVKLH | < -0.25
RSEAREQR | -0.229
LLKGEGKPAKNRYISFVIPV | < -0.25
HREHHSWRQVSASPHVPNLL | < -0.25
LWAHSIMVRRVRLKLSTLSA | < -0.25
STLGT | -0.221
TLSRVCLTGLE | < -0.25
DVCVVRRAKRGSDNTHVAGH | < -0.25

Individual results from the entries so far.
Entry for SVSAVP under growth estimate: < -0.25
Entry for SFRLACGVNGHTE under growth estimate: < -0.25

Further records

Substance | growth estimate
VRTHEGTSRLPKRTFLAEPH | < -0.25
RSSGLLERCGSQVFGRVERI | < -0.25
AGFSCNVAVNSAVRSKGVYG | < -0.25
IRVTGSVGGISLLAALYDSA | < -0.25
YRSLESPVRDSRRQSIIRVQ | < -0.25
SGLHRSDDSSVPPSTQ | < -0.25
GDRVNKGPRYNWWNL | -0.218
VVGSVSKNIKLMFDRTVPAP | < -0.25
LYSARIRKGARWLAVLARYF | < -0.25
CYSLGLGGGRQVRLLCHRGA | < -0.25
PKLRFTRLMGLSL | < -0.25
HFLFVSLLSVEATAVR | < -0.25
TIVWVDFLGSL | < -0.25
PIWGAPAWRGD | < -0.25
RRKRSVKGILNRLQRSTSGN | < -0.25
PWGGF | < -0.25
VPQTCRGVFRLPQERLKWRY | < -0.25
EYRLR | < -0.25
YEEGG | < -0.25
REVLSVQDYYRGGGEENSDD | -0.215
SFLSGGRLA | < -0.25
FVVEGVRDRRTFRNFSAWVG | < -0.25
WIRGRIEPWWMGVNV | < -0.25
CLTLCARKYRQMFSDALRIR | < -0.25
NVMC | < -0.25

Substance | growth estimate
KGFSEVESPGGF | < -0.25
IVCALGESREGTGFSCACPP | < -0.25
TYTL | -0.231
HARRGTMW | < -0.25
MRRSFAVCFLALDTRRGPSR | < -0.25
GLAGLSDAQPRGIASGS | < -0.25
NKRAGRDPPPRLGRGRIRC | < -0.25
NRTQDR | < -0.25
PRRPGYPASSKAKKQTANCT | < -0.25
IRDFRLGRSYQYH | < -0.25
TCGNGISPSKLKYPGRRVAR | < -0.25
HEWQTSPMQLGAQFRSGHKA | < -0.25
SSAMLYGNVWLSVLRGPTYQ | -0.172
GRDY | < -0.25
QDGGS | < -0.25
LASNAATVWIRSSEESFDGH | < -0.25
YVRLL | < -0.25
CRDGMHPSVVVMALRKLVHL | < -0.25
RARVQPDGSAVAEVYRFWRS | < -0.25
LQRMRLAIAKDHSGTNASEL | < -0.25
LITSSAVVLRTYLVTRYQPP | < -0.25
PFS | < -0.25
IGILW | < -0.25
SRSS | < -0.25
KLERRQLDLKCLT | < -0.25

Substance | growth estimate
PIS | < -0.25
AMYNPLCAITTESNSGRGPP | < -0.25
SAHVYAA | < -0.25
GPRRASSFFLKFDANVGNSR | < -0.25
LLFRTTIQKLRISNIQVTCR | < -0.25
VPMV | < -0.25
TTIGSGD | < -0.25
VGSRSR | < -0.25
PSNFEPIPMKHSIKKSDRGP | < -0.25
TVGGFVSSDAYSAYQSSYWG | < -0.25
GCR | < -0.25
LYFLGGVKVCSATALLVKSS | < -0.25
PDIQAGAYPM | 0.114
PTARVVRAGT | < -0.25
FLAHQRT | < -0.25
AARGAPWIAAQIGRVALICA | < -0.25
PQG | < -0.25
RIVRKARSERTREEVRLLYC | < -0.25
RTGVHVWLNYASFTVRRSLD | < -0.25
SCGSVG | < -0.25
WRSGATLDTSIPISIVANSA | < -0.25
